No constants are given. Whether binding was seen depends on the method and setting. For part of these data: In cells and extracts the contact can be indirect.
Legend:
GST-Mms2 = GST-Mms2 (UniProt Q15819); assay: pull-down; purified GST-tagged Uevs on GST beads; incubated with purified His6-Smurf1 overnight at 4 °C; washed four times with lysis buffer; anti-GST and anti-His6 blots; both purified
GST-Uev1C = GST-Uev1C (UniProt Q13404); assay: as above
His6-tagged Smurf1 = His6-tagged Smurf1 (UniProt Q9HCE7); assay: pull-down; His6-Smurf1 purified from bacterial cells on nickel agarose beads; incubated with U2OS cell extract overexpressing HA-tagged Uevs overnight at 4 °C; washed five times with lysis buffer; anti-HA blot; only the target purified

By UniProt entry, the sequences of proteins in these tests, tags left out.
UniProt Q15819: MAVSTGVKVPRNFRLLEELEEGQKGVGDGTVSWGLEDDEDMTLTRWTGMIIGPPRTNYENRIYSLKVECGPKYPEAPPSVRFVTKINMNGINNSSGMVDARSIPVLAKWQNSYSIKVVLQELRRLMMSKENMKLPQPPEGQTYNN
UniProt Q13404: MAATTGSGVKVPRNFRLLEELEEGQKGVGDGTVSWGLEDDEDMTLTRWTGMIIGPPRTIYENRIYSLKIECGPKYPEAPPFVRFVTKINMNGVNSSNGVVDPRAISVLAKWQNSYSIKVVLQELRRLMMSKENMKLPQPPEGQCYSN
UniProt Q9HCE7: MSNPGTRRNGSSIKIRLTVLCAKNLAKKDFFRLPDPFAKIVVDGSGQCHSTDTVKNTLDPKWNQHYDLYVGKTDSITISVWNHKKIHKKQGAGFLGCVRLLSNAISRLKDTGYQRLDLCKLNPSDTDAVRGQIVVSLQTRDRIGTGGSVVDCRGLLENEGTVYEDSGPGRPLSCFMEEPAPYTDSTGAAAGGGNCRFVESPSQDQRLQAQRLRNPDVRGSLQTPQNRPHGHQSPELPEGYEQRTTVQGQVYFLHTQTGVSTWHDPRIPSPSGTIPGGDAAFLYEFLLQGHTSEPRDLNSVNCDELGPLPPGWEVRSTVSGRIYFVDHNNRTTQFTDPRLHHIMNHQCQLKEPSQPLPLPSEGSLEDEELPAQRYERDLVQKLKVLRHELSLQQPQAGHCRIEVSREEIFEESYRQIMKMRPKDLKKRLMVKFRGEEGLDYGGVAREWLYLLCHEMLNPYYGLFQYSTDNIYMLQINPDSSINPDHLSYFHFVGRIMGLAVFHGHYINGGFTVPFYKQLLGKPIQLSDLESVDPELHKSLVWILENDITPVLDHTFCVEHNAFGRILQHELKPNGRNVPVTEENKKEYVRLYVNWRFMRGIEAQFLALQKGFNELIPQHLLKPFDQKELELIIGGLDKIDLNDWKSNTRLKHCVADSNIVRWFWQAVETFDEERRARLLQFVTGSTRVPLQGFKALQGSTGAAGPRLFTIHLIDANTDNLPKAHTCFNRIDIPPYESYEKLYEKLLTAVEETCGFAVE

Row | binding (GST-Mms2) | binding (GST-Uev1C) | binding (His6-tagged Smurf1) | Substance
1 | no binding | no binding |  | His6-tagged Smurf1 (from UniProt Q9HCE7 1-757) (enzyme)
2 |  |  | no binding | HA-tagged Mms2 (from UniProt Q15819 1-145)

Source: article PMC5596555
